According to US12241099B2, “Peptide therapeutics for treating Alzheimer's disease and related conditions” (The Board of Regents of the University of Oklahoma, priority 2018, dated 2025):
Part of at least one peptide drawing is inferred or uncertain, most often the ends. Non-standard residues stand in square brackets, D forms with d. Residues, ends and D or L forms follow the SMILES beside them. AEEA = NCCOCCOCC(=O)O

Chains of the proteins cited; added tags and fusions are not shown. Residues count along the entry.
UniProt P05067, 672-713 limits assumed: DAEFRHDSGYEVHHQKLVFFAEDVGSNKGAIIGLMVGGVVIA

Legend:
[1] = molecular target: T1, Aβ1-42 (Homo sapiens, UniProt P05067); test: ELISA binding of Aβ1-42 to plate-coated neutrophil proteins and derived peptides; conditions: 150 nM Aβ1-42; plate coated with protein/peptide at 5 μg/ml; no protease inhibitor
Procedure: CAP37, NE, and CG were purified from human neutrophils and purchased from Athens Research and Technology. BSA was from Sigma Aldrich. CAP37-derived peptides were synthesized by CS Bio Co with a purity >95%. Maxisorp plates from Nunc were coated with 100 μl neutrophil protein, peptide, or BSA diluted at 5 μg/ml in PBS with or without 1 mM PMSF purchased from Sigma Aldrich (for experiments with CAP37, NE, and BSA) or ±125 μM chymostatin purchased from Santa Cruz (for experiments with CG and BSA). Plate coating was done at room temperature for 2 hours with shaking and then at 4° C. overnight. Plates were washed three times in PBST (PBS+0.05% tween), then blocked with 3% BSA in PBST for 1 hour at room temperature with shaking. Plates were washed 3× in PBST, and 150 nM Aβ1-42 (purchased from Bachem and reconstituted in 1 mM NaOH) was added in 0.1% BSA in PBST and incubated 70 minutes at 37° C. Plates were then washed 4 times with PBST and monoclonal mouse anti-amyloid precursor protein/amyloid beta antibody, purchased from Cell Signaling Technology was added at a 1:500 dilution in 1% BSA in PBST and incubated for 1 hour at room temperature with shaking. […] Sulfuric acid (5N) was added to each well to stop the reaction, and the absorbance at 492 nm was read on a Biotek Synergy II plate reader.

[2] = tested on: mouse neuroblastoma cell line Neuro-2a; test: Neurotoxicity assay of Aβ1-42 fibrils/oligomers (trypan blue cell death); format: cell-based
Procedure: A mouse neuroblastoma cell line Neuro-2a from ATCC was used for these experiments. Cells were grown and seeded in 96 well plates at 20,000 cells per well in complete medium (MEM α, nucleosides, no phenol red from Gibco, with 10% heat inactivated fetal bovine serum from Gibco, and penicillin/streptomycin from Lonza). At 24 hours after seeding, cells were washed with warmed MEM α, and then incubated in 90 μl MEM α+N2 Supplements+20 μl test sample (Aβ1-42 prepared as described below). Cells were incubated another 24 hours at 37° C., and then dislodged by pipetting up and down vigorously. 10 μl of cells were added to 10 μl trypan blue dye (0.4% solution) from BioRad, mixed and counted in a BioRad TC20 cell counter. The percent of living and dead cells was recorded for each well. In the case of the water and Triton X100 controls, 20 μl MEM α+N2 Supplements was added instead of the test sample and, just before counting the cells, 20 μl of medium was removed and replaced with 20 μl water or Triton X100 at a final concentration of 0.1%.
Monomeric Aβ1-42 (hexafluoroisopropanol treated Aβ1-42) from Bachem was reconstituted at 5 mM in anhydrous DMSO. […]
Oligomers were formed by incubating 100 μM Aβ1-42 in MEMα+N2 Supplements at 4° C. for 3 days. […] Finally, these oligomers were added to neurons at a final concentration of 18 μM, and percent cell death was measured at 24 h.

[3] = molecular target: T1, Aβ1-42; test: Amyloid Beta (1-42) Thioflavin T fibrillation (aggregation) assay; format: biochemical; set-up: used to monitor the formation of Aβ1-42 peptide fibrils; purchased Anaspec
Procedure: The Amyloid Beta (1-42) Thioflavin T Aggregation Kit was purchased from Anaspec and used to monitor the formation of Aβ1-42 peptide fibrils, according to the manufacturer's instructions, with some modifications. Thioflavin T dye was diluted to 250 μM in fibrillation buffer A and kept in the dark until use. […] Neutrophil proteins were tested in the absence and presence of protease inhibitors. […] Chymostatin was dissolved in DMSO and used at 125 μM final concentration in reactions with CG. Reactions were pipetted up and down twice in the wells with a multichannel pipette to ensure mixing, and fluorescence (ΔEX=440 nm, ΔEm=485 nm) was read every 5 minutes for 3 hours on a BioTek Synergy 2 plate reader with Gen 5 software, with a sensitivity set at 65.

[4] = molecular target: T1, Aβ1-42; test: Enzyme activity assay (cleavage of Aβ1-42, MALDI-TOF); format: biochemical; set-up: used to monitor the formation of Aβ1-42 peptide fibrils; purchased Anaspec
Procedure: Aβ1-42 treated with hexafluoroisopropanol was purchased from Bachem and reconstituted in anhydrous DMSO at 5 mM. Reactions were set up with increasing concentrations of enzyme (CAP37, NE or CG) and 10 μM Aβ1-42 substrate in PBS, and incubated at 37° C. for 1 hour. Reactions were stopped by the addition of acetonitrile and trifluoroacetic acid (TFA) to final concentrations of 7.5% and 0.5% respectively. Internal standard (Aβ40-1 from Bachem) dissolved in 10% acetic acid was added to a final concentration of 8 μg/ml. A 10 μl aliquot of this mixture was desalted on a C18 OMIX tip from Agilent Technologies. First, the C18 resin was rinsed with 2×10 μl of 50% methanol, then 2×10 μl of equilibration buffer (5% acetonitrile 0.5% TFA), then the sample was applied to the resin by pipetting 10 times through the resin, which was then washed twice with equilibration buffer and eluted with 75% acetonitrile 0.1% TFA.
Desalted samples were analyzed by Matrix Assisted Laser Desorption/Ionization-Time of Flight mass spectrometry (MARLDI-TOF) using a Bruker Ultraflex II instrument and Flex Control Software. […] Chromatographs were analyzed with Flex Analysis software. […] The ratio of the Aβ1-42 peak intensity divided by the internal standard peak intensity was calculated for each spot, and triplicate spots were averaged to determine the amount of uncleaved Aβ in each enzymatic reaction.

In the case of `CC(C)C[C@H](NC(=O)[C@H](CCCNC(=N)N)NC(=O)CNC(=O)CNC(=O)[C@H](CO)NC(=O)[C@H](CCCNC(=N)N)NC(=O)[C@H](Cc1c[nH]c2ccccc12)NC(=O)[C@H](CO)NC(=O)CNC(=O)[C@H](Cc1c[nH]c2ccccc12)NC(=O)CNC(=O)[C@H](C)NC(=O)[C@@H](NC(=O)[C@H](CCC(N)=O)NC(=O)[C@H](CS)NC(=O)[C@H](CCCNC(=N)N)NC(=O)[C@@H](NC(=O)CNC(=O)[C@H](CCCNC(=N)N)NC(=O)[C@H](CCCNC(=N)N)NC(=O)[C@H](CCCNC(=N)N)NC(=O)[C@H](CCCNC(=N)N)NC(=O)COCCOCCNC(=O)COCCOCCN)[C@@H](C)O)C(C)C)C(=O)N[C@@H](CO)C(=O)N[C@@H](CCCNC(=N)N)C(=O)N[C@@H](Cc1ccccc1)C(=O)N1CCC[C@H]1C(=O)N[C@@H](CCCNC(=N)N)C(=O)N[C@@H](Cc1ccccc1)C(=O)N[C@H](C(=O)N[C@@H](CC(N)=O)C(=O)N[C@H](C(=O)N[C@@H](CCCNC(=N)N)C(=O)O)C(C)C)C(C)C` [120-146 WR 5RMP] (H-[AEEA][AEEA]RRRRGTRCQVAGWGSWRSGGRLSRFPRFVNVR-OH; C-terminus assumed), the “binding of Aβ1-42” value [1] is reported as “interact”, the “effect on Aβ1-42 oligomer toxicity” value ([2]; oligomers formed 15 min in presence of increasing concentrations, 18 μM Aβ1-42 on cells, 24 hours) is reported as “significantly inhibited” and the “effect on neurotoxicity of preformed Aβ1-42 oligomers” value ([2]; oligomers formed first (3 days, 4° C.), then incubated with peptide at 2×IC50 for 3 days, 18 μM on neurons, cell death at 24 h) is reported as “significantly reversed”. For the same compound, the IC50 ([3]; at time of complete fibrillation of Aβ1-42 control, no protease inhibitor) was roughly 1 µM, the “inhibition of Aβ1-42 fibrillation (in words)” value ([3]; increasing concentrations of peptide, Rfu) was “able to inhibit fibrillation” and the “molar ratio inhibitor/Aβ1-42 corresponding to IC50 of fibrillation” value ([3]; ratio at IC50) was 1/10. The “enzymatic activity on Aβ1-42” value [4] was “do not have enzymatic activities”.
